Like-named read-outs stand apart in the source and are kept apart here. Results are given in words; binding and its absence hold for the method and conditions named. In cells and extracts the contact can be indirect. Some results given as binding are weak or reduced against the parent protein; the word gives no strength. For some assays here: Tags and fused reporters may be left off the sequences shown. Blank lines part the entries; values can stand above or below the molecule they belong to.
Experiments:
Myc-tagged Smad3 [1] = biological target: Myc-tagged Smad3 (UniProt P84022); experiment: co-IP; HEK293T cells co-transfected; lysis buffer 50 mM Tris pH 8.0, 150 mM NaCl, 5 mM EDTA, 50 mM NaF, 0.1% NP-40; IP with anti-Myc antibody, protein A or G Sepharose, 2 h at 4°C; western blotting; for p300 with or without TGF-β1 (2 ng/ml) and with or without FLAG-FOSL2
[2] = biological target: endogenous Smad3 (human (endogenous in A549)) (UniProt P84022); experiment: co-IP; A549 cells transfected with siFOSL2 or control, treated with TGF-β1 (2 ng/ml) as indicated; precipitating antibody not told
Myc-tagged Smad3 [3] = biological target: Myc-tagged Smad3 (UniProt P84022); experiment: co-IP; HEK293T cells co-transfected; lysis buffer 50 mM Tris pH 8.0, 150 mM NaCl, 5 mM EDTA, 50 mM NaF, 0.1% NP-40; IP with anti-Myc antibody, protein A or G Sepharose, 2 h at 4°C; western blotting; for p300 with or without TGF-β1 (2 ng/ml) and with or without FLAG-FOSL2; remark: listed apart in the source
GST-Smad3 = GST-Smad3 (UniProt P84022); experiment: pull-down; GST-Smad3 or GST alone incubated with precleared whole-cell lysate of HEK 293T cells overexpressing Flag-FOSL2, glutathione Sepharose beads, 2 hours at 4°C, five washes with GST-binding buffer; immunoblotting; only the target purified
[4] = biological target: endogenous Smad3 (human (endogenous in A549)) (UniProt P84022); experiment: co-IP; endogenous proteins in A549 cells with TGF-β1 (2 ng/ml) treatment; IP with anti-Smad3 antibody or anti-IgG antibody; western blotting

By UniProt entry, the sequences of proteins in these tests, tags left out.
UniProt P84022: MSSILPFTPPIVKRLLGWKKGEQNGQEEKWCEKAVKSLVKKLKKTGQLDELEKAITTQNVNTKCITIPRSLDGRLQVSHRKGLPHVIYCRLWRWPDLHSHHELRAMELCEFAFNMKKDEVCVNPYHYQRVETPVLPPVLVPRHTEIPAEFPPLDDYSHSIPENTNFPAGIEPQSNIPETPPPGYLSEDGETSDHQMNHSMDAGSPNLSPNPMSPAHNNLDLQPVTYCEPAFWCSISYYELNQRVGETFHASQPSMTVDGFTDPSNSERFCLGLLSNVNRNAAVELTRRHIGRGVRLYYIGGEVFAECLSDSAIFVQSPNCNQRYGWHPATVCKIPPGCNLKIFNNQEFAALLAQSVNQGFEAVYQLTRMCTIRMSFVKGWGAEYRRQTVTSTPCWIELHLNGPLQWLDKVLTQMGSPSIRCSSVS
UniProt Q09472: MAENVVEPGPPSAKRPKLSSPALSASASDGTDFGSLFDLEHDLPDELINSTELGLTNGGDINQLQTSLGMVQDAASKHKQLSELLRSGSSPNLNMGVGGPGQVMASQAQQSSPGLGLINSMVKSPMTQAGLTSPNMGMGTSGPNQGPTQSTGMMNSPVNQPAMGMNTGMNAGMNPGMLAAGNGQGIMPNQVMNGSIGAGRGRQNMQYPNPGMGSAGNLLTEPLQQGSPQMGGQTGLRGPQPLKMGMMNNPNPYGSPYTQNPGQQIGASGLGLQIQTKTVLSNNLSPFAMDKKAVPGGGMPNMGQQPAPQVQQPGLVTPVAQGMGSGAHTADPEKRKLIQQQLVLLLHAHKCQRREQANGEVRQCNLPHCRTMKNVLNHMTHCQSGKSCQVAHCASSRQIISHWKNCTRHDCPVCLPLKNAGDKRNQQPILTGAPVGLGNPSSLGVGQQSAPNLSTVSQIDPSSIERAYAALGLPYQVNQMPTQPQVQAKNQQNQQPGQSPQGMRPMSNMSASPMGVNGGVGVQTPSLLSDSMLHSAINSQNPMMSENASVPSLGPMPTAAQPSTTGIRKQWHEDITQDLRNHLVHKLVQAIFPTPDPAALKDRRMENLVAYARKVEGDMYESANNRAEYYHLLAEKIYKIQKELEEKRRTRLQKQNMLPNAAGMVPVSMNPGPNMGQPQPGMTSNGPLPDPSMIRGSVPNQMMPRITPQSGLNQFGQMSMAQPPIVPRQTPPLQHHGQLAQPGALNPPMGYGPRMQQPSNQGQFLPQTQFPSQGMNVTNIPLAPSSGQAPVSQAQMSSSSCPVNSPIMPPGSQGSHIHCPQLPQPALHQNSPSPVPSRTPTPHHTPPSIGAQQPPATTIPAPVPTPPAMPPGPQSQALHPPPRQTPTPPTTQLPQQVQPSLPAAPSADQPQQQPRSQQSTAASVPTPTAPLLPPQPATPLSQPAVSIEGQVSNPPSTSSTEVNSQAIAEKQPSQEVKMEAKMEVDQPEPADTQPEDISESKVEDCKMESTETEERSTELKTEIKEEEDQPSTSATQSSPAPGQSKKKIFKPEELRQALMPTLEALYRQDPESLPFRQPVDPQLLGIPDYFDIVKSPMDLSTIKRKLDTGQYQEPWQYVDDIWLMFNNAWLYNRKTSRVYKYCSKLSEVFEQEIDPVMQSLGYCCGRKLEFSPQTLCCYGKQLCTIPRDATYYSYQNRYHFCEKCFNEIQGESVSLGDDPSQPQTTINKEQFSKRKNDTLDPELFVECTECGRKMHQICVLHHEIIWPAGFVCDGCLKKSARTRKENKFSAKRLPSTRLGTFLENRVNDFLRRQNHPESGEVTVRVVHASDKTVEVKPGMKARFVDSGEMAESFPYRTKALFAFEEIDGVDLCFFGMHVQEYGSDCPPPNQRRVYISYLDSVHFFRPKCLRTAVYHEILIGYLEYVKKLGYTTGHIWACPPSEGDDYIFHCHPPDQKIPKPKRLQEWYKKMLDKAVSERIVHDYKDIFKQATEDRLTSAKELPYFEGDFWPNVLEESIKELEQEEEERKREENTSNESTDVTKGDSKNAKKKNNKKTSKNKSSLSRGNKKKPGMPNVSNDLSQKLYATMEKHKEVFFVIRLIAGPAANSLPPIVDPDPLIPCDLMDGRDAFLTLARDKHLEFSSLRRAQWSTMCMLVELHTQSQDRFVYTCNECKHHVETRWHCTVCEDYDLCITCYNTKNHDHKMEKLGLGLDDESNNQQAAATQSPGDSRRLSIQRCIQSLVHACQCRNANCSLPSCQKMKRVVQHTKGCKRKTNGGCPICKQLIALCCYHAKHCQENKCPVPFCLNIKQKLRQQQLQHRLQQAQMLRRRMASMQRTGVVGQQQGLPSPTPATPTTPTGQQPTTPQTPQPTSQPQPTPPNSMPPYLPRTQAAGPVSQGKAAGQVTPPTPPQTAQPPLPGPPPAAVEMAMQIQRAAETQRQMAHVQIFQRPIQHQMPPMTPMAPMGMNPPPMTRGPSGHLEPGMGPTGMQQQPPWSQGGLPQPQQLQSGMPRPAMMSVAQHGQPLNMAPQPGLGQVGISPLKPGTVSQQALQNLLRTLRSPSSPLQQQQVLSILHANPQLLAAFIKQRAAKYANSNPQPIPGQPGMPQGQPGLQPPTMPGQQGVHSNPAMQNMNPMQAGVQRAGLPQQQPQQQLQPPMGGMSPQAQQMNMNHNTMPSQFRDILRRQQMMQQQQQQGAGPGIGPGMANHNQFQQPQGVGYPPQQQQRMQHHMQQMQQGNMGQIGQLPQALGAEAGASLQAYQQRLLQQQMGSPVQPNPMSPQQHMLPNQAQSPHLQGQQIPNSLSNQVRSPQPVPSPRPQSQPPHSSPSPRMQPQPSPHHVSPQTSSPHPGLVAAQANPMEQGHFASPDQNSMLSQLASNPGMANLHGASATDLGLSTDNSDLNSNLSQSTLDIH

binding (Myc-tagged Smad3 [1]): binds
Molecule: HA-tagged p300 (from UniProt Q09472 1-2414)

binding [2]: binds
Molecule: p300 in A549 cells (from UniProt Q09472 1-2414)

binding (Myc-tagged Smad3 [3]): binds | binding (GST-Smad3): binds
B1: FLAG-tagged FOSL2 (protein, UniProt P15408 1-326)
chain: MYQDYPGNFDTSSRGSSGSPAHAESYSSGGGGQQKFRVDMPGSGSAFIPTINAITTSQDLQWMVQPTVITSMSNPYPRSHPYSPLPGLASVPGHMALPRPGVIKTIGTTVGRRRRDEQLSPEEEEKRRIRRERNKLAAAKCRNRRRELTEKLQAETEELEEEKSGLQKEIAELQKEKEKLEFMLVAHGPVCKISPEERRSPPAPGLQPMRSGGGSVGAVVVKQEPLEEDSPSSSSAGLDKAQRSVIKPISIAGGFYGEEPLHTPIVVTSTPAVTPGTSNLVFTYPSVLEQESPASPSESCSKAHRRSSSSGDQSSDSLNSPTLLAL

binding [4]: binds
B2: endogenous FOSL2 (protein, UniProt P15408 1-326)
chain: B1 chain
